Measurements taken from paper PMC5807399.

Assays:
Experiment in all cases: EMSA
[1] = target: T1, AhAL1 (Atriplex hortensis) (UniProt A0A1W5T2K2); conditions: Binding buffer, pH and temperature not stated (EMSA as previously described, or LightShift Chemiluminescent EMSA kit), 2xGTGGAG probe annealed in 50 mM NaCl, recombinant protein, residues 1-241, protein details: GST (N-terminal, pGEX-6P-1)
T1 sequence (looked up): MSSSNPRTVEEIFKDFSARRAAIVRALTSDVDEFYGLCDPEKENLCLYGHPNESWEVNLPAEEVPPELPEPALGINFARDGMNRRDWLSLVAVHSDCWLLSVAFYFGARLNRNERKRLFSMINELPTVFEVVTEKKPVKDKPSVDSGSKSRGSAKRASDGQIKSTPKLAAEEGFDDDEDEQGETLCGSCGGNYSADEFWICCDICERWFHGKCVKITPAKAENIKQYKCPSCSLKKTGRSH

[2] = target: T2, AhAL4 (Atriplex hortensis) (UniProt A0A2D3FB44); conditions: competed by 10x unlabeled probe; Binding buffer, pH and temperature not stated (EMSA as previously described, or LightShift Chemiluminescent EMSA kit); 2xGTGGAG probe annealed in 50 mM NaCl; recombinant protein; residues 1-253; protein details: GST (N-terminal, pGEX-6P-1); label: 32P end label
T2 sequence (looked up): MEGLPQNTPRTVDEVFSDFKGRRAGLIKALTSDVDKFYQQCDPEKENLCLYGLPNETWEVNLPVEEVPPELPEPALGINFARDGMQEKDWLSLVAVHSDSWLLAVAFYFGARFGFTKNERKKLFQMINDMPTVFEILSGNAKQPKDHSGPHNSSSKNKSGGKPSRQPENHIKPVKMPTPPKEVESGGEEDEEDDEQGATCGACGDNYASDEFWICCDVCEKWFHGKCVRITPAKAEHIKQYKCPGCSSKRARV

[3] = target: T3, GmPHD4 (Glycine max) (UniProt I1M961); conditions: positive control; Binding buffer, pH and temperature not stated (EMSA as previously described, or LightShift Chemiluminescent EMSA kit); 2xGTGGAG probe annealed in 50 mM NaCl; recombinant protein; label: 32P end label
T3 sequence (looked up, limits assumed): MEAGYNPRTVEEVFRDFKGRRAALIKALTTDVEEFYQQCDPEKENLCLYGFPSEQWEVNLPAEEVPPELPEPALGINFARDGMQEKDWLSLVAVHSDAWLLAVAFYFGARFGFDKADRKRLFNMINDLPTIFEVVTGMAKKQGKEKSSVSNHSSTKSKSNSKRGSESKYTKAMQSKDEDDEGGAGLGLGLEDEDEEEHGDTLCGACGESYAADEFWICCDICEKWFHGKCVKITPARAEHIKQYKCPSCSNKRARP

[4] = target: T4, AhAL3 (Atriplex hortensis) (UniProt A0A2D3FB43); conditions: competed by 10x unlabeled probe; Binding buffer, pH and temperature not stated (EMSA as previously described, or LightShift Chemiluminescent EMSA kit); 2xGTGGAG probe annealed in 50 mM NaCl; recombinant protein; residues 1-251; protein details: GST (N-terminal, pGEX-6P-1); label: 32P end label
T4 sequence (looked up): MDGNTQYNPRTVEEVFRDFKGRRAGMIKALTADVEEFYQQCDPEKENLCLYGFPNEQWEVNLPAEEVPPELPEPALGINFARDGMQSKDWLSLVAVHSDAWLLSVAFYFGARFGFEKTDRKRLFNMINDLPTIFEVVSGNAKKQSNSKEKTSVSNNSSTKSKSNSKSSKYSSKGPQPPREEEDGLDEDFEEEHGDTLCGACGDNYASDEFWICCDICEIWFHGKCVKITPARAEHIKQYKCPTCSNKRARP

[5] = target: T5, AhAL2 (Atriplex hortensis) (UniProt A0A2D3FB38); conditions: competed by 10x unlabeled probe; Binding buffer, pH and temperature not stated (EMSA as previously described, or LightShift Chemiluminescent EMSA kit); 2xGTGGAG probe annealed in 50 mM NaCl; recombinant protein; residues 1-256; protein details: GST (N-terminal, pGEX-6P-1); label: 32P end label
T5 sequence (looked up): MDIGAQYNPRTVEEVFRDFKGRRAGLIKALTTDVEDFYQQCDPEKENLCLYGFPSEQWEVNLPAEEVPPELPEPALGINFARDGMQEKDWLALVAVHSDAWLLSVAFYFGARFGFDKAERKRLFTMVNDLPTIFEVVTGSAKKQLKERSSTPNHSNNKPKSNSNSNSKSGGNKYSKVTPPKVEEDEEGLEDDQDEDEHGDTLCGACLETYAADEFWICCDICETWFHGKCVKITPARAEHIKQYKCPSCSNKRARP

[6] = 100x unlabeled probe as competitor, label: 5' biotin

| Sequence | binding result [1, 6] | also measured |
| --- | --- | --- |
| CAAAACTTCTATAAAGATACCCAATAATAATGGAGGGGTGACACGATAGT (double strand) [ABI2 promoter probe] | binds | – |
| CGTGGCATTCACAGAGACAGAAACTCCGCGTTCGACCCCACAAATATCCA (double strand) [DREB1C promoter probe] | binds | – |
| GGTCGTTGTCACATAAAGAAACTTGGGATTCCGTGGAGTGCTTATAATTT (double strand) [HAB2 promoter probe] | binds | – |
| AACTTCATCTAGGTGGAGATGTATGATGTACTACTACATGTATCGTGGAGTACAACATC (double strand) [2xGTGGAG probe] | – | binding result [2]: binds; binding result [3]: binds; binding result [4]: binds; binding result [5]: binds; binding result ([1]; competed by 10x unlabeled probe, label: 32P end label): binds |
| TATTACTAGATTTTTCTTATATGTTTTAAGGGTAGTGGGGCTGACCTATC (double strand) [AHG3 promoter probe] | binds | – |
| AGTCCATCTTTGAAATTTAAAGCTTTGTTGTGGTGTGGTGTGGAAATCTC (double strand) [HAB1 promoter probe] | binds | – |
| CATCAATCCACAAACTAGATTCATAGAAAACATCCCCCACCGTTAGATCG (double strand) [GRF7 promoter probe] | binds | – |
| ATGAACCTTTTTTTCTTTCGATCAAATCTCTCCCGCCACCCAACTAACAC (double strand) [ABI1 promoter probe] | binds | – |

Construct, isoform or probe ends are uncertain for at least one entry. For part of these data: At least one verdict rests on a figure or table, not on a statement of the authors. Tags and fusion partners may be left off the protein sequences shown.
